# No constants are given. Whether binding was seen depends on the method and setting. In cells and extracts the contact can be indirect. Some binding calls cover weakened binding; strength is not graded here.
# The chains behind the UniProt entries cited, without tags or fusion partners.
# UniProt P52952: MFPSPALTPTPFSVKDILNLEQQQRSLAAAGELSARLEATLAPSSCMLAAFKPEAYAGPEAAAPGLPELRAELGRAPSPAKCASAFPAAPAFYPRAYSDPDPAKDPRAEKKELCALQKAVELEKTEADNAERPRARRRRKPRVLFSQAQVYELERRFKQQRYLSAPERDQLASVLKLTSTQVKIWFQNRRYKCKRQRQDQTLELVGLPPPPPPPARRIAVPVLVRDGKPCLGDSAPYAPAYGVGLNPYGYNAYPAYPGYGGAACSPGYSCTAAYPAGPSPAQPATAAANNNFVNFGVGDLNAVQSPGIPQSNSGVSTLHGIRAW
# Target: T1, ubiquitin‐like protein with plant homeodomain and ring finger domains 1 (UHRF1) (human) (UniProt Q96T88)
# T1 sequence: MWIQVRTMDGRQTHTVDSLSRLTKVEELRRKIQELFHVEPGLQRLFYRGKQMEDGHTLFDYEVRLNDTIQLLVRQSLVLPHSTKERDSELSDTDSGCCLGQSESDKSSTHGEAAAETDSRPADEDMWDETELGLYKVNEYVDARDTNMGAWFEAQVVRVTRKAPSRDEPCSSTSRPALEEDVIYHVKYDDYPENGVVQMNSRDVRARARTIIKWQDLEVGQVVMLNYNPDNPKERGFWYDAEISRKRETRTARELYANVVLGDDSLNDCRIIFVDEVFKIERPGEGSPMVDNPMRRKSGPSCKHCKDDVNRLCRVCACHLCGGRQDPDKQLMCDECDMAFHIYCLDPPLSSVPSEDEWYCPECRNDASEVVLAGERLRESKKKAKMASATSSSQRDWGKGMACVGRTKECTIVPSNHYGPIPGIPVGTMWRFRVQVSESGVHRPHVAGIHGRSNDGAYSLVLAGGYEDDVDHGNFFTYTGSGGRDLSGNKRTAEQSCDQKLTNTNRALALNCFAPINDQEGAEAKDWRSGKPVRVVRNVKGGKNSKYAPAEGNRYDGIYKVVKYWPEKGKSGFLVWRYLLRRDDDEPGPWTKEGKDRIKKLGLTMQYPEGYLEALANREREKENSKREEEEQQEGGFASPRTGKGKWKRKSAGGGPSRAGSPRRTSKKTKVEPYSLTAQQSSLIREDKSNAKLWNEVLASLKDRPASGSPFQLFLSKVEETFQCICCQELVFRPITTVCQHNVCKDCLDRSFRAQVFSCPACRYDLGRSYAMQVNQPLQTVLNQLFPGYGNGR
# Test: co-IP; immunoprecipitation by a previously described protocol (ref. 47); cells, precipitating antibody and bait not stated; for DNMT1/DNMT3A also after UHRF1 knockdown
substance,measurement,value
NKX2‐5 (from UniProt P52952 1-324),binding,binds
